These results are taken from PMC4373798.

Amino acid sequences for entries named in this document (tags omitted).
UniProt P26231: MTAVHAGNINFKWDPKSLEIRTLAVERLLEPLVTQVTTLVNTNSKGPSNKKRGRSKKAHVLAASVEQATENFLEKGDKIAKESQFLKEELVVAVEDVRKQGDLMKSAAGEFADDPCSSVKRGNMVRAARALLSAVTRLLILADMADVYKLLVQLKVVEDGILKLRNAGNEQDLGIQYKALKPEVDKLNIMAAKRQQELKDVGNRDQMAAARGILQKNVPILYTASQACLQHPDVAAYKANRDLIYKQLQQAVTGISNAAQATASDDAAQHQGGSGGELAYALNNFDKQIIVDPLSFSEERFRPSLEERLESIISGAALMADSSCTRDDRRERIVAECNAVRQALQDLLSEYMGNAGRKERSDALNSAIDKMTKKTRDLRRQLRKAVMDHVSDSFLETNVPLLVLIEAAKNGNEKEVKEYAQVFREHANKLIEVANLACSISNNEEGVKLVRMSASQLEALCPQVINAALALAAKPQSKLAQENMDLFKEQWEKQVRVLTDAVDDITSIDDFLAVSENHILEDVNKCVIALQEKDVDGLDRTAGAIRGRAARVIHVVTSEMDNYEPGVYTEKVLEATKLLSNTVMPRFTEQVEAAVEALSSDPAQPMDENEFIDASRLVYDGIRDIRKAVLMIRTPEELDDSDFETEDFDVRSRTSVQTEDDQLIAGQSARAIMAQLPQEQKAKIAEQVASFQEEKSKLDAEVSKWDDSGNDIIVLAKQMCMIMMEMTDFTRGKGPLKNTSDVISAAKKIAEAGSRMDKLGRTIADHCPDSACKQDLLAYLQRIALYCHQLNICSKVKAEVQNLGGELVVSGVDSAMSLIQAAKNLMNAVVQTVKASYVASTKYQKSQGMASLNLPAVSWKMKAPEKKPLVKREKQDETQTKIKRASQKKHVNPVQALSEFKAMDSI
UniProt B6V8E6: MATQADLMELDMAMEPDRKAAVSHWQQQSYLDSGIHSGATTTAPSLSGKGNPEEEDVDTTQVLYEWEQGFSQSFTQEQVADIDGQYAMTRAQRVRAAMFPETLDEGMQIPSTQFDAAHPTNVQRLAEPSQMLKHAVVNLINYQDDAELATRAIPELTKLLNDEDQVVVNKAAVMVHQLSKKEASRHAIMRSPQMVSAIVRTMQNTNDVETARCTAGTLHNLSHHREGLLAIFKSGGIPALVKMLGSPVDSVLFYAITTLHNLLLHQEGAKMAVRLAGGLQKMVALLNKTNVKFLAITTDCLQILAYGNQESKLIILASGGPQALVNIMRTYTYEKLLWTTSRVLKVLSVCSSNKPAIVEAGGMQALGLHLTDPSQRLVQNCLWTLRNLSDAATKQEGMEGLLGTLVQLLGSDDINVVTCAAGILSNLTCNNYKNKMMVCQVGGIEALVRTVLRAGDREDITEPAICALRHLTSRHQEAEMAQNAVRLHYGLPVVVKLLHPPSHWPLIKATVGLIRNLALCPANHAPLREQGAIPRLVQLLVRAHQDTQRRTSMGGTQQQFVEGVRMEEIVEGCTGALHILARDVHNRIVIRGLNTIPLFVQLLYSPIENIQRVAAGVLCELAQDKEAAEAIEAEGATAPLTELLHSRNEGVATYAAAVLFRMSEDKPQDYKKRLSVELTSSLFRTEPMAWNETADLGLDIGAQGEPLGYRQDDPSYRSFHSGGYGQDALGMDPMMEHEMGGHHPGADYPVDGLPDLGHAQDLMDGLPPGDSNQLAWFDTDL

These are yes or no findings as the source states them, for the method shown. Binding seen in cells or lysates may run through a third protein. A yes stands for co-enrichment or nearness to the bait. Other partners may have been found.

The target of assay [1] is GFP-tagged BirA*-α-catenin (GFP-BirA*-α-catenin fusion with epithelia-specific α-catenin) (UniProt P26231). Description: proximity labelling; biotinylation read on immuno-precipitates (E-cadherin or myosin IIA antibody, 0.1% SDS wash) by streptavidin-HRP blot; control and stretched cells.
For assay [2] the target is unchanged. Description: proximity labelling; BirA*-α-catenin MDCK cells in PDMS stretch chambers without mechanical perturbation; standard protocol, streptavidin beads washed with 2% SDS; Western blot.
For assay [3] the target is unchanged. Description: proximity labelling; BirA*-α-catenin MDCK cells on a P150 dish, 50 μM biotin; lysis in 0.2% SDS RIPA; streptavidin beads in 0.1% SDS, washed with 2% SDS; Western blot of the bead fraction.

For β-catenin (from UniProt B6V8E6 1-781), the binding entry in assay [1] is “binds”; in assay [2] it was “binds weakly”; in assay [3], “binds”.
